Counter-ions that a name gives are not always drawn. Not every detail of the peptide structures is certain; ends, links or a residue may be inferred. Where a SMILES comes first, the peptide text is derived from it. The star is where a group is joined. Propyl(2R-PamO,3-PamO) = CCCCCCCCCCCCCCCC(=O)OC[C@H](C*)OC(=O)CCCCCCCCCCCCCCC; X1 = CCCCCCCCCCCCCCCC(=O)OC[C@@H](C*)OC(=O)CCCCCCCCCCCCCCC
Assays:
[1] = test system: bone marrow cells of BALB/c mice; test: Enhancing proliferation of bone marrow cells of mice (MTT reduction method); format: cell-based, mouse; conditions: concentration giving 1.3 or more times the proliferation of the group without test compound; 3 days incubation
Method: To an RPMI 1640 culture medium [Bio-Wittaker Inc. (hereinafter abbreviated as BW), USA] containing 2×10^6 /ml of bone marrow cells of BALB/c mice, 2 mM of L-glutamine, 20 ug/ml of gentamicin (Flow Laboratories, Inc., Scotland), 10% fetal calf serum (BW, USA) was added a test compound in an adequate concentration, which was incubated at 37° C. for 3 days in 5% carbon dioxide in air followed by determination of proliferation of the bone marrow cells by the MTT reduction method [Tada et al., Journal of Immunological Methods, Vol. 93, p.157, 1986].

[2] = test system: peripheral blood leukocytes of CDF1/Crj mice; test: Enhancing the number of leukocytes in cyclophosphamide-treated mice; format: in vivo, mouse; conditions: cyclophosphamide 150 mg/kg p.o., then compound 0.13 mg/kg/day s.c. for 5 days; mice without cyclophosphamide = 100%

| Compound | Minimal Effective Concentration (MEC) [1] | Number of leukocytes [2] |
| --- | --- | --- |
| CCCCCCCCCCCCCCCC(=O)OC[C@@H](CSC[C@H](N)C(=O)NCC(=O)NCC(=O)NCC(=O)N[C@@H](CCC(=O)O)C(=O)N[C@H](C(=O)N[C@H](C(=O)O)[C@@H](C)O)[C@@H](C)O)OC(=O)CCCCCCCCCCCCCCC [Compound 1, (2R,6S)-2-amino-6,7-bis(PamO)-4-THT-Gly-Gly-Gly-Glu-Thr -Thr-OH] (H-C(X1)GGGETT-OH) | 0.625 ng/mL | – |
| CCCCCCCCCCCCCCCC(=O)OC[C@H](CSC[C@H](N)C(=O)NCC(=O)N[C@@H](CCCCN)C(=O)NCC(=O)O)OC(=O)CCCCCCCCCCCCCCC [Compound 44, (2R,6R)-2-amino-6,7-bis(PamO)-4-THT-Gly-Lys-Gly-OH 2 TFA salt] (H-C(Propyl(2R-PamO,3-PamO))GKG-OH) | < 0.156 ng/mL | – |
| CCCCCCCCCCCCCCCC(=O)OC[C@H](CSC[C@H](N)C(=O)NCC(=O)N[C@@H](CCC(=O)O)C(=O)O)OC(=O)CCCCCCCCCCCCCCC [Compound 14, (2R,6R)-2-amino-6,7-bis(PamO)-4-THT-Gly-Glu-OH] | 0.156 ng/mL | 118% |

Source: patent US5478808A, “2-amino-6,7-dihydroxy-4-thiaheptanoic acid derivatives, production and use thereof” (Takeda Chemical Industries, Ltd., priority 1992, dated 1995)
